# How the values were obtained:
# [1] = Weekly body weight, Example 2 part one; type: in vivo, dog
# Description: The performance dogs were weighed at the beginning of the study and at one week intervals until the end of part one. Feed consumption and refusals were determined daily by weighing and recording the amount offered or refused. The quantity of food provided to each dog on a daily basis was adjusted based on the goal of maintaining the dog's minimum body weight throughout the study.
# [2] = Body weights during 13 wk study, Example 1; type: in vivo, dog; conditions: Ex.1, 250 mg/d, mean ± SEM
# Description: Experimental Design: Forty Labrador Retrievers (labs) ranging in age from 1 to 3.5 years were incorporated into a two dietary treatment study. The two dietary treatments were based on feeding the test dogs the same low L-carnitine diet but adding 250 mg per day of L-carnitine to the L-carnitine group. Each of the L-carnitine dogs received the daily 250 mg of L-carnitine mixed with an additional 3.75 g sugar. The control dogs received 4 g of sugar each day. Twenty labs of equal gender, age, excitement level, frame size, body weight and genetic background were utilized for each of the two treatments. The labs utilized for the nutrition study were from a minimum of 6 different bitches. The lean body mass of the 40 test dogs was determined by scanning with the DEXA and the final key component utilized to assure equal groups. Prior to the start of the study, the labs were acclimated to the experimental diets for a minimum of 10 days. The labs were weighed at the beginning of the 90 day study and weighed every two weeks throughout the study. Feed consumption was determined daily by weighing feed provided and feed refusals. The quantity of food provided each dog on a daily basis was adjusted based on maintaining a minimum initial starting body weight throughout the study. The dog food was provided by Lonza Inc. and was equal to the minimum guaranteed analysis of Gold N Pro (MFA of Missouri) that the performance dogs had been consuming prior to the start of the study (Table 1).
structure (smiles),measurement,setting,value
C[N+](C)(C)C[C@H](O)CC(=O)[O-] [L-carnitine],Weekly Body Weight,"[1]; Week 1, all dogs",29.57 ± 0.96 kg
same,Weekly Body Weight by Gender,[1]; Week 1 Female,25.72 ± 0.93 kg
same,Weekly Body Weight by Gender,[1]; Week 1 Male,33.41 ± 0.82 kg
same,Weekly Body Weight,"[1]; Week 2, all dogs",28.68 ± 0.88 kg
same,Weekly Body Weight by Gender,[1]; Week 2 Female,25.26 ± 0.88 kg
same,Weekly Body Weight by Gender,[1]; Week 2 Male,32.11 ± 0.81 kg
same,Weekly Body Weight,"[1]; Week 3, all dogs",29.21 ± 0.89 kg
same,Weekly Body Weight by Gender,[1]; Week 3 Female,26.04 ± 0.98 kg
same,Weekly Body Weight by Gender,[1]; Week 3 Male,32.39 ± 0.9 kg
same,Weekly Body Weight,"[1]; Week 4, all dogs",29.21 ± 0.89 kg
same,Weekly Body Weight by Gender,[1]; Week 4 Female,26.04 ± 0.98 kg
same,Weekly Body Weight by Gender,[1]; Week 4 Male,32.39 ± 0.9 kg
same,Weekly Body Weight,"[1]; Week 5, all dogs",29.36 ± 0.9 kg
same,Weekly Body Weight by Gender,[1]; Week 5 Female,26.03 ± 0.98 kg
same,Weekly Body Weight by Gender,[1]; Week 5 Male,32.69 ± 0.86 kg
same,Weekly Body Weight,"[1]; Week 6, all dogs",29.47 ± 0.89 kg
same,Weekly Body Weight by Gender,[1]; Week 6 Female,26.25 ± 1 kg
same,Weekly Body Weight by Gender,[1]; Week 6 Male,32.69 ± 0.84 kg
same,Weekly Body Weight,"[1]; Week 7, all dogs",29.57 ± 0.89 kg
same,Weekly Body Weight by Gender,[1]; Week 7 Female,26.27 ± 0.94 kg
same,Weekly Body Weight by Gender,[1]; Week 7 Male,32.86 ± 0.87 kg
same,Weekly Body Weight,"[1]; Week 8, all dogs",29.63 ± 0.9 kg
same,Weekly Body Weight by Gender,[1]; Week 8 Female,26.37 ± 1.01 kg
same,Weekly Body Weight by Gender,[1]; Week 8 Male,32.89 ± 0.86 kg
same,Weekly Body Weight,"[1]; Week 9, all dogs",29.63 ± 0.9 kg
same,Weekly Body Weight by Gender,[1]; Week 9 Female,26.37 ± 1.01 kg
same,Weekly Body Weight by Gender,[1]; Week 9 Male,32.89 ± 0.86 kg
same,Weekly Body Weight,"[1]; Week 10, all dogs",29.59 ± 0.9 kg
same,Weekly Body Weight by Gender,[1]; Week 10 Female,26.28 ± 0.99 kg
same,Weekly Body Weight by Gender,[1]; Week 10 Male,32.9 ± 0.83 kg
same,Weekly Body Weight,"[1]; Week 11, all dogs",29.65 ± 0.9 kg
same,Weekly Body Weight by Gender,[1]; Week 11 Female,26.32 ± 0.98 kg
same,Weekly Body Weight by Gender,[1]; Week 11 Male,32.99 ± 0.84 kg
same,Weekly Body Weight,"[1]; Week 12, all dogs",29.74 ± 0.93 kg
same,Weekly Body Weight by Gender,[1]; Week 12 Female,26.26 ± 1.02 kg
same,Weekly Body Weight by Gender,[1]; Week 12 Male,33.22 ± 0.81 kg
same,Weekly Body Weight,"[1]; Week 13, all dogs",29.76 ± 0.91 kg
same,Weekly Body Weight by Gender,[1]; Week 13 Female,26.31 ± 0.99 kg
same,Weekly Body Weight by Gender,[1]; Week 13 Male,33.21 ± 0.8 kg
same,Weekly Body Weight,"[1]; Week 14, all dogs",29.68 ± 0.9 kg
same,Weekly Body Weight by Gender,[1]; Week 14 Female,26.23 ± 0.95 kg
same,Weekly Body Weight by Gender,[1]; Week 14 Male,33.13 ± 0.81 kg
same,Body weight,"[2]; Week 1, both sexes",61 ± 1.9 n = 20 lb
same,Body weight,"[2]; Week 1, females",55 ± 1.2 n = 9 lb
same,Body weight,"[2]; Week 1, males",65.9 ± 2.5 n = 11 lb
same,Body weight,"[2]; Week 3, both sexes",63.4 ± 1.9 n = 20 lb
same,Body weight,"[2]; Week 3, females",58.1 ± 1.2 n = 9 lb
same,Body weight,"[2]; Week 3, males",67.8 ± 2.8 n = 11 lb
same,Body weight,"[2]; Week 5, both sexes",62.8 ± 2 n = 20 lb
same,Body weight,"[2]; Week 5, females",58.3 ± 1.2 n = 9 lb
same,Body weight,"[2]; Week 5, males",66.6 ± 3 n = 11 lb
same,Body weight,"[2]; Week 7, both sexes",63 ± 1.8 n = 20 lb
same,Body weight,"[2]; Week 7, females",59 ± 1.4 n = 9 lb
same,Body weight,"[2]; Week 7, males",66.3 ± 2.7 n = 11 lb
same,Body weight,"[2]; Week 9, both sexes",62.8 ± 1.9 n = 20 lb
same,Body weight,"[2]; Week 9, females",58.2 ± 1.7 n = 9 lb
same,Body weight,"[2]; Week 9, males",66.5 ± 2.9 n = 11 lb
same,Body weight,"[2]; Week 11, both sexes",64.4 ± 2 n = 20 lb
same,Body weight,"[2]; Week 11, females",59 ± 1.5 n = 9 lb
same,Body weight,"[2]; Week 11, males",68.8 ± 2.8 n = 11 lb
same,Body weight,"[2]; Week 13, both sexes",64.9 ± 2 n = 20 lb
same,Body weight,"[2]; Week 13, females",59.6 ± 1.5 n = 9 lb
same,Body weight,"[2]; Week 13, males",69.3 ± 2.8 n = 11 lb
